From PMC12436594

By UniProt entry, the sequences of proteins in these tests, tags left out. Where a name states a change or a piece, a line headed by the entry shows the natural chain unless it says otherwise.
UniProt P22629: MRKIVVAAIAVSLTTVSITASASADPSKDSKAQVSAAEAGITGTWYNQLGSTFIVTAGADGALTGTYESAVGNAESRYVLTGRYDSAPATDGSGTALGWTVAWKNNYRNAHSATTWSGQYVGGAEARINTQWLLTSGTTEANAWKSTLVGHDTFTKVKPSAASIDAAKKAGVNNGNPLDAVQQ

Assays:
[1] = target: T1, YkuD transpeptidase (Bacillus subtilis) (UniProt O34816); assay: flow cytometry (Ni-NTA beads); settings: 5 mM Mg2+, 25 mM Tris-HCl pH 8.0, 100 mM NaCl, 5 mM MgCl2, room temperature, 1 h, 10 ug His-tagged protein captured on Ni-NTA agarose beads, recombinant protein, protein details: His, label: 5'-FAM, synthetic backbone, letters put together from the description
T1 sequence (looked up, limits assumed): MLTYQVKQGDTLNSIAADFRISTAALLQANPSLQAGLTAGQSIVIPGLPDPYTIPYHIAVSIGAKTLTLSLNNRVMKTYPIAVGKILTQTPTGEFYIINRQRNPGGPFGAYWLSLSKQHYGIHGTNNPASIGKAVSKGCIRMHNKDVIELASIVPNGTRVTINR

streptavidin = streptavidin (UniProt P22629); assay: flow cytometry (Ni-NTA beads); settings: 5 mM Mg2+, 25 mM Tris-HCl pH 8.0, 100 mM NaCl, 5 mM MgCl2, room temperature, 1 h, 10 ug His-tagged protein captured on Ni-NTA agarose beads, recombinant protein, protein details: His, label: 5'-FAM, synthetic backbone, letters put together from the description
[2] = dUCOTc replaces every T after the 20-nt forward primer
[3] = dUCOTc (COT-carboxylate-modified dU) replaces every T after the 20-nt forward primer

Sequence	binding result ([1]; slightly above control, likely non-specific, dUCOTc replaces every T after the 20-nt forward primer)	binding result (streptavidin; [2])	binding result [1, 2]	binding result [1, 3]	binding result (streptavidin; [3])
CACTCACGTCAGTGACATGCAGGTCCTCTCGCCCCCAGTGACTTGCGTGGTCAGAAATTTCGCACCAC [N15 COTc aptamer]	binds more weakly	no binding	–	–	–
CACTCACGTCAGTGACATGCCAAGCGAAGTTGTGCGCCCGCGTCGTGGTCGTCAGAAATTTCGCACCAC [N5 COTc aptamer]	–	no binding	no binding	–	–
CACTCACGTCAGTGACATGCGCATTACGCAGCGCTGCGCAGCGAGTACCGGTCAGAAATTTCGCACCAC [N0 COTc aptamer]	–	–	–	no binding	no binding

No signal at the amounts used counts as a negative. For part of these data: The exact form of at least one protein or probe is not confirmed. For part of these data: Where a protein sequence is shown, tags need not be part of it. For part of these data: Weaker means in comparison with the reference protein, sequence or condition of that experiment.
